Results on one substance are retold here after patent publication US5650395A (priority 1995, dated 1997).

The data set is described as follows: Boc solid-phase peptide synthesis; Boc-L-Leu Merrifield resin; diisopropyl carbodiimide; preformed symmetrical anhydrides; preformed HOBT ester. As to conditions: whole synthesis, scale 244.7 g resin.

For the substance “D-F5-Phe-Gln-Trp-Ala-Val-D-Ala-His-Leu-OMe”, the isolated mass is on record as 30.9 g.
